Experimental data as given in paper PMC5235370.
These are yes or no findings as the source states them, for the method shown. Binding seen in cells or lysates may run through a third protein. Some entries that bind do so weakly or less than the wild type. Sequences can lack the tags named with a protein.

Amino acid sequences for entries named in this document (tags omitted).
UniProt Q07817: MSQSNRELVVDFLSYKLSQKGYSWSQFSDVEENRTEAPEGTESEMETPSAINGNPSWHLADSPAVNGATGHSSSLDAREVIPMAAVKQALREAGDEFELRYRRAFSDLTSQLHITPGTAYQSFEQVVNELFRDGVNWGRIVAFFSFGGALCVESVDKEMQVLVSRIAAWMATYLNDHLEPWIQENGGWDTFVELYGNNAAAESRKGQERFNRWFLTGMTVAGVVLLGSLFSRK

Target: FLAG-Bcl-xL (human) (UniProt Q07817)
Experiment: co-IP; HEK293T cells co-transfected with the FLAG- and EmGFP-tagged proteins; nutrient-rich or starvation conditions for 2 h, or GAS infection for 4 h; lysis in 50 mM Tris-HCl pH 7.5, 150 mM NaCl, 1% Triton X-100; anti-FLAG antibody and Protein G Sepharose at 4°C; immunoblot with anti-GFP

B1: EmGFP-UVRAG (protein, UniProt Q9P2Y5-1 1-699)
chain: MSASASVGGPVPQPPPGPAAALPPGSAARALHVELPSQQRRLRHLRNIAARNIVNRNGHQLLDTYFTLHLCSTEKIYKEFYRSEVIKNSLNPTWRSLDFGIMPDRLDTSVSCFVVKIWGGKENIYQLLIEWKVCLDGLKYLGQQIHARNQNEIIFGLNDGYYGAPFEHKGYSNAQKTILLQVDQNCVRNSYDVFSLLRLHRAQCAIKQTQVTVQKIGKEIEEKLRLTSTSNELKKKSECLQLKILVLQNELERQKKALGREVALLHKQQIALQDKGSAFSAEHLKLQLQKESLNELRKECTAKRELFLKTNAQLTIRCRQLLSELSYIYPIDLNEHKDYFVCGVKLPNSEDFQAKDDGSIAVALGYTAHLVSMISFFLQVPLRYPIIHKGSRSTIKDNINDKLTEKEREFPLYPKGGEKLQFDYGVYLLNKNIAQLRYQHGLGTPDLRQTLPNLKNFMEHGLMVRCDRHHTSSAIPVPKRQSSIFGGADVGFSGGIPSPDKGHRKRASSENERLQYKTPPPSYNSALAQPVTTVPSMGETERKITSLSSSLDTSLDFSKENKKKGEDLVGSLNGGHANVHPSQEQGEALSGHRATVNGTLLPSEQAGSASVQLPGEFHPVSEAELCCTVEQAEEIIGLEATGFASGDQLEAFNCIPVDSAVAVECDEQVLGEFEEFSRRIYALNENVSSFRRPRRSSDK
binding: binds
